# Data published in PubChem BioAssay AID1671190 (National Center for Advancing Translational Sciences (NCATS), 2021).
# The chains behind the UniProt entries cited, without tags or fusion partners. Where a name states a change or a piece, a line headed by the entry shows the natural chain unless it says otherwise.
# UniProt P18054: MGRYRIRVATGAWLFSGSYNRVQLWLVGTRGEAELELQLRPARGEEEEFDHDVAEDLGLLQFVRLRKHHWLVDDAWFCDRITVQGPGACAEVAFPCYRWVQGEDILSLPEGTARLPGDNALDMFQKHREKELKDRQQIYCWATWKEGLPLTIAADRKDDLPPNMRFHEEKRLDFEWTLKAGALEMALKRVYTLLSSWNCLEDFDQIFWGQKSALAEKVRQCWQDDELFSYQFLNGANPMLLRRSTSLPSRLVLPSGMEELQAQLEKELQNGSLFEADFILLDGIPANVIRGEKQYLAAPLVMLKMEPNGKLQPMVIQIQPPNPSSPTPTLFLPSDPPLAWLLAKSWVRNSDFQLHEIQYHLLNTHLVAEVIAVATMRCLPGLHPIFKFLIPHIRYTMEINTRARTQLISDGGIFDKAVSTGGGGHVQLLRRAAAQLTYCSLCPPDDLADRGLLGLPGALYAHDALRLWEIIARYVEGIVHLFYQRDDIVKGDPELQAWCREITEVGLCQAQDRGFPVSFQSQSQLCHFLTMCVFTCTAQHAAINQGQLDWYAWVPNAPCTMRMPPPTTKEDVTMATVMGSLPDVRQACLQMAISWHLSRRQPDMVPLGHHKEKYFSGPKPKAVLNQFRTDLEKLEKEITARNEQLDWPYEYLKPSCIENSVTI
# The whole screen tested about 580,000 compounds, of which about 6,100 (1.1%) were called active. The shares of active, inactive and inconclusive entries below differ from those in the screen. Calls come from the whole dose curve; as a rule, active = well fitted inhibition curve with a large enough effect; inconclusive = small, poorly fitted or top-dose-only effect, or another doubt; inactive = no such curve, though single readings can be large or run the other way. Potencies of inconclusive entries are doubtful fits and often do not repeat.
# Biological target: Polyunsaturated fatty acid lipoxygenase ALOX12 (Homo sapiens) (UniProt P18054)
# Assay: Primary qHTS assay for inhibitors of human arachidonate 12S-lipoxygenase (ALOX12): Round 2
# Details: purified 12hLO, xylenol orange hydroperoxide absorbance; series mostly up to 108 µM
# In short: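 Purified human 12hLO (150 nM final) in 25 mM Hepes, 0.01% Triton X-100, pH 7.0 was preincubated 15 min at room temperature with compound. Then 40 uM arachidonic acid was added, 30 min. Hydroperoxide was read by Fe-XO absorbance ratio 573/405 nm.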
# Potency is the fitted concentration of half-maximal effect.
row,Structure (SMILES),Potency
1,CCOC(=O)C(C(=O)OCC)C(Nc1ccc(Br)cc1)c1ccccc1 (centres undefined),"inconclusive: 89.1 µM [inhibitor, partial curve, poor fit]"
2,Cc1ccc(OCCN(C)Cc2cc(=O)oc3c(C)c(O)ccc23)cc1,"inconclusive: 126 µM [inhibitor, single point]"
3,Cc1ccc2nc(C)c(C(=O)NN=C3CCN(C)CC3)n2c1,inactive
4,Cn1ncc(Cl)c1C(=O)Nc1ccncc1,inactive
5,Cc1cc(CNC(=O)[C@@H]2CCC[C@@H](NCC3CC3)CN(C)C(=O)C2)no1,inactive
6,O=C(Cn1ncc(N2CCNCC2)cc1=O)NCCc1ccc(F)cc1,"inconclusive: 28.2 µM [inhibitor, partial curve]"
7,CC1CCCC(NC(=O)CCC2CCCO2)C1 (centres undefined),inactive
8,Cc1ccc(S(=O)(=O)N2CCCOC2CNC(=O)C(=O)NCCN2CCOCC2)cc1 (centres undefined),"inconclusive: 100 µM [inhibitor, partial curve, poor fit]"
9,COCCOc1ccc(C(F)(F)F)cc1NC(=O)Cc1ccc(S(=O)(=O)N2CCOCC2)s1,inactive
10,COc1ccc(-c2cc(C(=O)NCCN3CCOCC3)c3ccccc3n2)cc1OC,inactive
11,O=C(CC[C@@H]1CNC(=O)[C@@H]2C[C@H](NC(=O)Nc3ccsc3)CN12)NCc1ccccc1,"inconclusive: 50.1 µM [inhibitor, partial curve]"
12,Cc1ccccc1-c1nnn(Cc2cc(Cl)c3c(c2)OCCCO3)n1,inactive
13,COCCn1c(C)cnc1C1CCN(C(=O)C2CCC2)C1 (centres undefined),"inconclusive: 28.2 µM [inhibitor, single point]"
14,Fc1ccccc1CNC(=S)NCc1ccc(Cl)cc1,"inconclusive: 50.1 µM [inhibitor, partial curve, poor fit]"
15,Oc1ccc(Br)cc1-c1cc(-c2ccco2)[nH]n1,"inconclusive: 28.2 µM [inhibitor, single point]"
16,Cc1[nH]c2ccccc2c1SCCN,"inconclusive: 112 µM [inhibitor, single point]"
17,CCN(c1ccccc1)S(=O)(=O)c1ccc(C(=O)N(CCCN(C)C)c2nc3cc4c(cc3s2)OCO4)cc1,"inconclusive: 50.1 µM [inhibitor, partial curve, poor fit]"
18,C/C(=N/O)C1(C)N(O)C(C)(C)C(c2ccc(Cl)cc2)=[N+]1[O-] (centres undefined),inactive
19,O=C(NC1CCN(Cc2ccccc2)CC1)c1ccc(Cn2c(=S)[nH]c3ccc(N4CCOCC4)cc3c2=O)cc1,"inconclusive: 63.1 µM [inhibitor, partial curve, poor fit]"
20,Clc1ccccc1C1Cn2nnc(-c3noc(COc4ccccc4)n3)c2CO1 (centres undefined),"inconclusive: 31.6 µM [inhibitor, partial curve]"
21,CNc1c(NC(=O)NCc2cccc(OC)c2)c(=O)oc2ccccc12,inactive
22,Cn1c(COc2ccc(C(C)(C)C)cc2)nnc1SCc1csc(-c2ccc(F)cc2)n1,"inconclusive: 79.4 µM [inhibitor, single point]"
23,Cc1ccccc1NC(=O)COC(=O)c1cc(=O)[nH]c2ccccc12,"inconclusive: 44.7 µM [inhibitor, partial curve, poor fit]"

# 2 of these compounds, reformatted:
row	Structure (SMILES)	Potency
6	O=C(Cn1ncc(N2CCNCC2)cc1=O)NCCc1ccc(F)cc1	inconclusive: 28.2 µM [inhibitor, partial curve]
9	COCCOc1ccc(C(F)(F)F)cc1NC(=O)Cc1ccc(S(=O)(=O)N2CCOCC2)s1	inactive

# Continued:

row,Structure (SMILES),Potency
1,O=C(C[n+]1ccc2ccccc2c1)c1cccc2ccccc12,"inconclusive: 35.5 µM [inhibitor, partial curve, poor fit]"
2,c1ccc(CNCc2ccc(-c3ccccc3)o2)cc1,inactive
3,CS(=O)(=O)Nc1ccc(-c2csc(NC3CC3)n2)cc1,active: 10 µM
4,O=C(NCc1ccc(OC(F)(F)F)cc1)c1n[nH]c(=O)c2ccccc12,inactive
5,CS(=O)(=O)Nc1cccc(-c2ccc3ncnc(NC4CC4)c3c2)c1,"inconclusive: 89.1 µM [inhibitor, partial curve, poor fit]"
6,Cc1cc(C)cc(C(=O)NCC(=O)N2CCN(c3cccc(Cl)c3)CC2)c1,"inconclusive: 50.1 µM [inhibitor, partial curve, poor fit]"
7,OCCOCCN1CCN(Cc2cccc(Oc3ccccc3)c2)CC1,"inconclusive: 31.6 µM [inhibitor, single point]"
8,COc1ccc2cc([C@H](C)C(=O)NCCc3cccs3)ccc2c1,"inconclusive: 15.8 µM [inhibitor, partial curve, poor fit]"
9,Cc1ccccc1Cc1c(C)nc2nc(SCC(=O)NCCc3ccc(Cl)cc3)nn2c1C,inactive
10,O=C(NCCc1ccc(Cl)cc1)c1ccc2c(=O)n(-c3ccccc3)c(=O)[nH]c2c1,"inconclusive: 112 µM [inhibitor, single point]"
11,CC(OC(=O)c1ccc(S(=O)(=O)N(C)C)cc1)C(=O)Nc1ccc(Cl)cn1 (centres undefined),"inconclusive: 126 µM [inhibitor, single point]"
12,COc1ccc(CCNC(=O)CSc2ccc(-c3ccco3)nn2)cc1,inactive
13,COc1ccccc1-c1nnc(SCC2CCOCO2)n1-c1ccccc1 (centres undefined),"inconclusive: 56.2 µM [inhibitor, partial curve, poor fit]"
14,COc1cccc(NC(=O)[C@@H]2CCCN2C(=O)C2CCN(S(=O)(=O)c3ccc(C)cc3)CC2)c1,inactive
15,CCn1nnnc1SCc1cc(=O)oc2cc(C)ccc12,inactive
16,Cc1ccc(-c2nn(-c3cccc(F)c3)cc2CNCCc2ccncc2)o1,"inconclusive: 56.2 µM [inhibitor, partial curve, poor fit]"
17,c1ccc(COCc2ccccc2)cc1,inactive
18,CCc1nc(C#N)c(NCCc2ccc(OC)c(OC)c2)o1,inactive
19,CC1=C/C(=N/NC(=S)Nc2cc(C)ccc2C)CC1,"inconclusive: 50.1 µM [inhibitor, partial curve, poor fit]"
20,Cc1cccc(NC(c2ccc(O)cc2)c2ccc3ccc(C)nc3c2O)n1 (centres undefined),"inconclusive: 5.62 µM [inhibitor, full curve, poor fit]"
21,O=C(CN1CCN(Cc2ccccc2)CC1)NCCc1ccccc1,inactive
22,C(#CCN1CCN(CC#CCOCc2ccccc2)CC1)COCc1ccccc1,"inconclusive: 4.47 µM [inhibitor, full curve, poor fit]"
23,CCCS(=O)(=O)CCSS(=O)(=O)O,inactive

row,Structure (SMILES),Potency
1,O=C(CN1CCN(C(=O)c2ccco2)CC1)Nc1ccccc1-c1ccccc1,inactive
2,CC1=C(C(=O)Nc2ccc(C)cc2C)C(c2ccc(C)cc2)NC(=S)N1 (centres undefined),"inconclusive: 50.1 µM [inhibitor, partial curve, poor fit]"
3,Cc1ccc2c(=O)cc(C(=O)Nc3cccc(Cl)c3)oc2c1C,inactive
4,Cc1cccc(-n2nc(C)c(CCC(=O)N3CCSCC3)c2Oc2ccc(F)cc2F)c1,"inconclusive: 79.4 µM [inhibitor, single point]"
5,CC(C)C(c1nnnn1C(C)(C)C)N1CCN(c2cccc(Cl)c2)CC1 (centres undefined),inactive
6,CSc1ccccc1OCc1cc(C(=O)N(C)C(C)c2ccccn2)no1 (centres undefined),"inconclusive: 31.6 µM [inhibitor, partial curve]"
7,CC(C)[C@H](NS(=O)(=O)c1cccc(Cl)c1)C(=O)OCC(=O)N1CCN(c2ccccc2)CC1,"inconclusive: 39.8 µM [inhibitor, partial curve]"
8,Cc1cccc(C)c1NC(=O)CN(C)Cc1cc(=O)oc2c(C)c(O)ccc12,"inconclusive: 39.8 µM [inhibitor, partial curve]"
9,CCOc1ccc(NC(=O)CN2C(=O)COc3ccc(S(=O)(=O)NC4CCCC4)cc32)cc1,"inconclusive: 158 µM [inhibitor, partial curve, poor fit]"
10,O=C(Nc1ccc(F)cc1F)c1ccc2c(O)c(S(=O)(=O)c3ccc(Cl)cc3)c(=O)[nH]c2c1,"inconclusive: 126 µM [inhibitor, single point]"
11,O=C(c1ccc(F)cc1)N1CCN(c2ccc([N+](=O)[O-])cc2-n2cccc2)CC1,"inconclusive: 112 µM [inhibitor, single point]"
12,C[C@H](CO)N1C[C@H](C)[C@@H](CN(C)CC2CC2)Oc2c(NS(=O)(=O)c3ccccc3)cccc2C1=O,"inconclusive: 79.4 µM [inhibitor, partial curve, poor fit]"
13,N#CCC(=O)Nc1ccc(C(=O)OCc2cccc(Cl)c2)cc1,"inconclusive: 0.708 µM [inhibitor, full curve, poor fit]"
14,COc1ccccc1-n1cnnc1SCC(=O)NC(C)c1cccc2ccccc12 (centres undefined),inactive
15,Cn1c(COc2ccc3c(c2)CCCC3)nnc1SCC(=O)NC1CCCCC1,"inconclusive: 11.2 µM [inhibitor, full curve]"
16,COc1cc(/C=C/C(C)=NNc2ccccc2)ccc1O,"inconclusive: 31.6 µM [inhibitor, partial curve, poor fit]"
17,O=C(O)c1csc(-c2cccc(Cl)c2)n1,inactive
18,Cc1ccc(S(=O)(=O)N(C)C)cc1NC(=S)NCCCn1ccnc1,inactive
19,Cc1ccc(-c2cnc(CCC(=O)Nc3ccn(C)n3)o2)cc1C,"inconclusive: 44.7 µM [inhibitor, partial curve, poor fit]"
20,Cc1cc2nc(SCC(=O)Nc3ccc(F)c(Cl)c3)[nH]c(=O)c2[nH]1,"inconclusive: 0.282 µM [inhibitor, full curve, poor fit]"
21,COc1cc2cc(OC(C)=O)c3cc4c(cc3c2c(OC)c1OC)OCO4,"inconclusive: 39.8 µM [inhibitor, partial curve]"
22,CN(C)c1ccc(NC(=O)c2ccc3ccccc3c2)cc1,"inconclusive: 7.08 µM [inhibitor, partial curve, poor fit]"
23,O=C1c2ccccc2NC(c2cccc([N+](=O)[O-])c2)N1O (centres undefined),"inconclusive: 11.2 µM [inhibitor, partial curve, poor fit]"
